Source: PMC8213057, “Targeting ALK2: An Open Science Approach to Developing Therapeutics for the Treatment of Diffuse Intrinsic Pontine Glioma” (Journal of Medicinal Chemistry, 2020)

By UniProt entry, the sequences of proteins in these tests, tags left out. Where a name states a change or a piece, a line headed by the entry shows the natural chain unless it says otherwise.
UniProt P42685: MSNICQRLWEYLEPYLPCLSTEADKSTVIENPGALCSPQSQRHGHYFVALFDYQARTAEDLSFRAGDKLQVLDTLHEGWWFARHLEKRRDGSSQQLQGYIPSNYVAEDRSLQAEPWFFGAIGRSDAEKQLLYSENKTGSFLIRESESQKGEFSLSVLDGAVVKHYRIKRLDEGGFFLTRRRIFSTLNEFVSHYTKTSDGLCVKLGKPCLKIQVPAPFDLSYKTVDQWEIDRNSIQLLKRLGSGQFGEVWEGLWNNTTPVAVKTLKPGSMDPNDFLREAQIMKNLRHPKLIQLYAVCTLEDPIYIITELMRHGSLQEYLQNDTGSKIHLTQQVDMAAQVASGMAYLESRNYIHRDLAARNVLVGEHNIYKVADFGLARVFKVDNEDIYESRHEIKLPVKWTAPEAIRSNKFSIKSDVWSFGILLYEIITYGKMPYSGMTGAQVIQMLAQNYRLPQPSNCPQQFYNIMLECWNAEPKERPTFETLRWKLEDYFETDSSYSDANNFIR
UniProt Q06187: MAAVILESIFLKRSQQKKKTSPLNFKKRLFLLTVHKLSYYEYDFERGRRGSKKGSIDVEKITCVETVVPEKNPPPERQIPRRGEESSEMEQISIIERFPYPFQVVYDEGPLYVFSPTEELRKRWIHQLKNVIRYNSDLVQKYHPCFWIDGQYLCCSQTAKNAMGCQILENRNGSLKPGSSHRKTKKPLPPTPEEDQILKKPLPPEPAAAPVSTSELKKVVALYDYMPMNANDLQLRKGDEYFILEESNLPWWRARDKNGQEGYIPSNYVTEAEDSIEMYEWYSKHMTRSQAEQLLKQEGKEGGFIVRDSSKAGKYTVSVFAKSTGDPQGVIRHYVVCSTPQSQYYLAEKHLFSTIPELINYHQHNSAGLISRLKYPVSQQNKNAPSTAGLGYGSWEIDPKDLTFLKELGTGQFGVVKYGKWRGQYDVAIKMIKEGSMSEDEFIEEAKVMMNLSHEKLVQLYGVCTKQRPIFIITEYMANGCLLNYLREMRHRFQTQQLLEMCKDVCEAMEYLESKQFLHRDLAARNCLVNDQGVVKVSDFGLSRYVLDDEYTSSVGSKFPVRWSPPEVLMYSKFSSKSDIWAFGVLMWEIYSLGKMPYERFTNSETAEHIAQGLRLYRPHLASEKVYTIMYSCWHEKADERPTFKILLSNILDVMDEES
UniProt Q6DT37: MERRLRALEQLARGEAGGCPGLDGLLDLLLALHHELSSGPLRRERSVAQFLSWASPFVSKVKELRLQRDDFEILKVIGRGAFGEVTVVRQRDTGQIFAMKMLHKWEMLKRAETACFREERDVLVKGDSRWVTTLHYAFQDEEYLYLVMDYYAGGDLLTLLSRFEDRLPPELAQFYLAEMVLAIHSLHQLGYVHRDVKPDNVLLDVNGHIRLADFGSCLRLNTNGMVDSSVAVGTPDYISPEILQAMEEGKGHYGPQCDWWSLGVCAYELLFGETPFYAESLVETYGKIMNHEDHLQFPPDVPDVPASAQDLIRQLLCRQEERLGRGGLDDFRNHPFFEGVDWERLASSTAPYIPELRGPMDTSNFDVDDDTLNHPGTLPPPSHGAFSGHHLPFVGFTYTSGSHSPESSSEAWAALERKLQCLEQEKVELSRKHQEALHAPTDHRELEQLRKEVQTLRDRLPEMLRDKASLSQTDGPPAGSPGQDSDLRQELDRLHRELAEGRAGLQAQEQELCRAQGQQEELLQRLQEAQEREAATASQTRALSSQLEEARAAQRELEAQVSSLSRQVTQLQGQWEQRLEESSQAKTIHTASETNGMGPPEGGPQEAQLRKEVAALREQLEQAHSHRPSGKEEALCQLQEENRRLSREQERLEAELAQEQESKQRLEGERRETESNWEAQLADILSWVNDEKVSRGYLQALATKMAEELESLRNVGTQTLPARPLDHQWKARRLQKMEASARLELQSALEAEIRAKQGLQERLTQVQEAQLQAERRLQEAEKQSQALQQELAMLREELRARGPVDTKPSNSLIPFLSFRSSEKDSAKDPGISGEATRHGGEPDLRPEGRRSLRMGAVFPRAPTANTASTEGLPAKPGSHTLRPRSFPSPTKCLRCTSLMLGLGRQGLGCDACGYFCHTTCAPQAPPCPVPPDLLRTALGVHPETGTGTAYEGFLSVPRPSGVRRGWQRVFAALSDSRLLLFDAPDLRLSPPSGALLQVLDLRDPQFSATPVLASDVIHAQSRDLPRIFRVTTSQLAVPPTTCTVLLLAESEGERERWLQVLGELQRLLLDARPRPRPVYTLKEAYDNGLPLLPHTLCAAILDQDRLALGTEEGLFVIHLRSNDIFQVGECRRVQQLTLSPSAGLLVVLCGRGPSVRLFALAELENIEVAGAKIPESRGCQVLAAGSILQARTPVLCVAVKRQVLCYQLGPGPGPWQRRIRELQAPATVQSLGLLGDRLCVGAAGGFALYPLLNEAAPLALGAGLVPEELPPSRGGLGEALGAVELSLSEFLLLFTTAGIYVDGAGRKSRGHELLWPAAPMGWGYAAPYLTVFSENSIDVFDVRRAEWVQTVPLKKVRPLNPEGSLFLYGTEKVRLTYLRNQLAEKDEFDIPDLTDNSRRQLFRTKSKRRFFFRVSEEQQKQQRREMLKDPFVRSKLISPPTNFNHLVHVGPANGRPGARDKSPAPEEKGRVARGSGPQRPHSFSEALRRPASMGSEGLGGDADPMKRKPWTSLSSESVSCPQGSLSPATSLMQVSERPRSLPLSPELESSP
UniProt Q8IVH8: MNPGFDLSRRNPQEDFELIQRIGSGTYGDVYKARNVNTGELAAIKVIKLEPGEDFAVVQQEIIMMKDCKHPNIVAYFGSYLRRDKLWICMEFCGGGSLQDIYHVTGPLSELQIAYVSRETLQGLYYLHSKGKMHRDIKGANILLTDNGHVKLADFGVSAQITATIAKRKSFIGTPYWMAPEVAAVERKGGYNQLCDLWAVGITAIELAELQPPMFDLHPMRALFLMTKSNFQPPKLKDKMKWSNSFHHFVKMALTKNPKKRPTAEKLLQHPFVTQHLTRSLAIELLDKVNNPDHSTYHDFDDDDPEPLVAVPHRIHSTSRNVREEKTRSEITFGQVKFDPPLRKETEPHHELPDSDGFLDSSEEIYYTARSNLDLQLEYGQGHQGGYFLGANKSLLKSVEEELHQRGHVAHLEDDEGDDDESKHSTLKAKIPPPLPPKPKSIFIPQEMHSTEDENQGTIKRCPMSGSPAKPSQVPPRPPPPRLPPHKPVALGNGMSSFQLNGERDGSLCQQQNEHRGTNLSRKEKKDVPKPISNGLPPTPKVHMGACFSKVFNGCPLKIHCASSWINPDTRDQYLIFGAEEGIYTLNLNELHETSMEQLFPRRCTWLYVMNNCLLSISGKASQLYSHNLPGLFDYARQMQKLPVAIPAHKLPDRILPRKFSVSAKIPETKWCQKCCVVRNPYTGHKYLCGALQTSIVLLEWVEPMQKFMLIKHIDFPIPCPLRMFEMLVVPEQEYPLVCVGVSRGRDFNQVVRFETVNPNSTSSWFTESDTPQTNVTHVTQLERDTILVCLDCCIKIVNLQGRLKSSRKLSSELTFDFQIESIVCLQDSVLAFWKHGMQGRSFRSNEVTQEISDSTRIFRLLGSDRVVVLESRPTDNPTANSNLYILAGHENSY
UniProt Q9HC98: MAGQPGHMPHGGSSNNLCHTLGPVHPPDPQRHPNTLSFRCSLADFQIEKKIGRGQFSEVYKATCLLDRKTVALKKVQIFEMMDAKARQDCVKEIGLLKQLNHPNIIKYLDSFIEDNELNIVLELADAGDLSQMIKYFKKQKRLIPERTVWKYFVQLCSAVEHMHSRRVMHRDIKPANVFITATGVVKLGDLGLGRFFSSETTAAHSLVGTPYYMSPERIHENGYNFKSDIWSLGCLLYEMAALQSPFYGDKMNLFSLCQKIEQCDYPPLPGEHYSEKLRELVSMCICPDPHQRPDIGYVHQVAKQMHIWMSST
UniProt Q16513: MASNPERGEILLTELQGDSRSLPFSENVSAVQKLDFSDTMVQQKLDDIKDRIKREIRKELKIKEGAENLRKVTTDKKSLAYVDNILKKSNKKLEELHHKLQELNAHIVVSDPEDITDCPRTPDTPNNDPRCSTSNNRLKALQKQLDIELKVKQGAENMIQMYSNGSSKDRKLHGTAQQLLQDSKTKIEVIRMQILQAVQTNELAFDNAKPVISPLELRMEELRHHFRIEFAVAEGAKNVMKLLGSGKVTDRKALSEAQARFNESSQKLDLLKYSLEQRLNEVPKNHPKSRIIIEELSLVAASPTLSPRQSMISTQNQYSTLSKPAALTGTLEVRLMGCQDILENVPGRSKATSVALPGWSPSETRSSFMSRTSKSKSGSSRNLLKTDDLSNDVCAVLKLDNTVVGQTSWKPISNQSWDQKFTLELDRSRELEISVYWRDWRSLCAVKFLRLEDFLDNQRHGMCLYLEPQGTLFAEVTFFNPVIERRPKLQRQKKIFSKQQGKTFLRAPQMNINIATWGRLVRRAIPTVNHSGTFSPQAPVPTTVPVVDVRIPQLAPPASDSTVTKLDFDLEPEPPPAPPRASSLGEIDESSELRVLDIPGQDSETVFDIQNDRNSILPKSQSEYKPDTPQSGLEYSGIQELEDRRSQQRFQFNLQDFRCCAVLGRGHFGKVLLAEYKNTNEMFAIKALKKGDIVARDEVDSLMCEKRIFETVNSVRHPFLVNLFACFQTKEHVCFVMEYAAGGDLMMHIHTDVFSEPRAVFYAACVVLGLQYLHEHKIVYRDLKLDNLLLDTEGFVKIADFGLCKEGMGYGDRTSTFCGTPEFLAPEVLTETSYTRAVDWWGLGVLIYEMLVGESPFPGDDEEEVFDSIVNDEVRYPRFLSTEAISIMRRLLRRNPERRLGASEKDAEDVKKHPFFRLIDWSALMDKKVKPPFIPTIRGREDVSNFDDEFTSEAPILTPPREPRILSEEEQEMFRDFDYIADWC
UniProt Q9NRH2: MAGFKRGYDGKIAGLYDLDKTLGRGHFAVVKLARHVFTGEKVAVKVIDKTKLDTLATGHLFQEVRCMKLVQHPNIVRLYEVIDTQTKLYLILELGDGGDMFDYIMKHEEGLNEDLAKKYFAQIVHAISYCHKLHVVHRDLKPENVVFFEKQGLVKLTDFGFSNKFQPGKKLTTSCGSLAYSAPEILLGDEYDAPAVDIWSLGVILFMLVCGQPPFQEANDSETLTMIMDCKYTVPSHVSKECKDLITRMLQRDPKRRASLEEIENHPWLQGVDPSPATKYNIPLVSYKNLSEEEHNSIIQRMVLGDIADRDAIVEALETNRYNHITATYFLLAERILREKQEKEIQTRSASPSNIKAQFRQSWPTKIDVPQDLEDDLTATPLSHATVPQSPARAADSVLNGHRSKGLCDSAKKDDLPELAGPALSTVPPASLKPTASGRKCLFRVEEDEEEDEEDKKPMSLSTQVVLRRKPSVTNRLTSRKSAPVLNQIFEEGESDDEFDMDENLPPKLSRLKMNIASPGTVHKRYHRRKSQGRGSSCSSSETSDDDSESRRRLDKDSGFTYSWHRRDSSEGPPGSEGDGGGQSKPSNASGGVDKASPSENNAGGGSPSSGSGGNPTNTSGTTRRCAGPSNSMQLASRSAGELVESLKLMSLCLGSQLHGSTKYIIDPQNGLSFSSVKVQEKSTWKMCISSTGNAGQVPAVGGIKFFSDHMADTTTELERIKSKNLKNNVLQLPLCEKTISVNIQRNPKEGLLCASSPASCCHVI
UniProt Q86UE8, whole entry: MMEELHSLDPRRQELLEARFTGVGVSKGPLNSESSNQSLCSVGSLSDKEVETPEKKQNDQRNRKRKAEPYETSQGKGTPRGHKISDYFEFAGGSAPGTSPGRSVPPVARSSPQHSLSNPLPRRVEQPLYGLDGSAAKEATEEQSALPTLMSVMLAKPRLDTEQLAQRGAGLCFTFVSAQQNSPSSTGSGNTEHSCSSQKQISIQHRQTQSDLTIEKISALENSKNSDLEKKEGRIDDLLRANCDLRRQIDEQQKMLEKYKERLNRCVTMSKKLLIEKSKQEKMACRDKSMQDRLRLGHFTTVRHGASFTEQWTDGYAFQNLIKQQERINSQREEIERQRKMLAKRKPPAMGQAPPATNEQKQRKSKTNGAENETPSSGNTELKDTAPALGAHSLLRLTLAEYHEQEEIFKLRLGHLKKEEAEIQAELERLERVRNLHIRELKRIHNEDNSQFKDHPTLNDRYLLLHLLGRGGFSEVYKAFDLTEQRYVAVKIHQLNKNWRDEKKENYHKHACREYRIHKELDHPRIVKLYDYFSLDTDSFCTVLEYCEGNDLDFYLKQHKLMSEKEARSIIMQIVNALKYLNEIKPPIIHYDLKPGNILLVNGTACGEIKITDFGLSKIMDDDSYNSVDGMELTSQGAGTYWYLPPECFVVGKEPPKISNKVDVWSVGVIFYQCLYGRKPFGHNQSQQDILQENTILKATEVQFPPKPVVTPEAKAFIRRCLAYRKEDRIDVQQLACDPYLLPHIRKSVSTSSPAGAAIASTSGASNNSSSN

Assays:
CDK2/cyclin A = CDK2/cyclin A (Homo sapiens, UniProt P24941); details: 1 μM; Run 1, Run 2
CDK2/cyclin E2 = CDK2/cyclin E2 (Homo sapiens, UniProt P24941); details: 1 μM; Run 1, Run 2
CDK2/cyclin O = CDK2/cyclin O (Homo sapiens, UniProt P24941); details: 1 μM; Run 1, Run 2
CDK5/p35 [1] = molecular target: T1, CDK5/p35 (Homo sapiens, UniProt Q00535); details: 1 μM; Run 1, Run 2
CDK8/cyclin C = CDK8/cyclin C (Homo sapiens, UniProt P49336); details: 1 μM; Run 1, Run 2
CSK = CSK (Homo sapiens, UniProt P41240); details: 1 μM; Run 1, Run 2
FRK/PTK5 = FRK/PTK5 (Homo sapiens, UniProt P42685); details: 1 μM; Run 1, Run 2
FYN [2] = molecular target: T2, FYN (Homo sapiens, UniProt P06241); details: 1 μM; Run 1, Run 2
MKK4 = MKK4 (Homo sapiens, UniProt P45985); details: 1 μM; Run 1, Run 2
OSR1/OXSR1 = OSR1/OXSR1 (Homo sapiens, UniProt O95747); details: 1 μM; Run 1, Run 2
PYK2 = PYK2 (Homo sapiens, UniProt Q14289); details: 1 μM; Run 1, Run 2
SIK1 [3] = molecular target: T3, SIK1 (Homo sapiens, UniProt P57059); details: 1 μM; Run 1, Run 2
SRPK2 = SRPK2 (Homo sapiens, UniProt P78362); details: 1 μM; Run 1, Run 2
STK32B/YANK2 = STK32B/YANK2 (Homo sapiens, UniProt Q9NY57); details: 1 μM; Run 1, Run 2
ULK2 = ULK2 (Homo sapiens, UniProt Q8IYT8); details: 1 μM; Run 1, Run 2
WNK2 = WNK2 (Homo sapiens, UniProt Q9Y3S1); details: 1 μM; Run 1, Run 2
BTK = BTK (Homo sapiens, UniProt Q06187); assay: biochemical; details: read-out: % enzyme activity, 1 μM; Run 1, Run 2
CDK1/cyclin B = CDK1/cyclin B (Homo sapiens, UniProt P06493); assay: biochemical; details: read-out: % enzyme activity, 1 μM; Run 1, Run 2
CDK5/p35 [4] = molecular target: T1, CDK5/p35; assay: biochemical; details: read-out: % enzyme activity, 1 μM; Run 1, Run 2
CK2a2 = CK2a2 (Homo sapiens, UniProt P19784); assay: biochemical; details: read-out: % enzyme activity, 1 μM; Run 1, Run 2
DMPK = DMPK (Homo sapiens, UniProt Q09013); assay: biochemical; details: read-out: % enzyme activity, 1 μM; Run 1, Run 2
DMPK2 = DMPK2 (Homo sapiens, UniProt Q6DT37); assay: biochemical; details: read-out: % enzyme activity, 1 μM; Run 1, Run 2
DRAK1/STK17A = DRAK1/STK17A (Homo sapiens, UniProt Q9UEE5); assay: biochemical; details: read-out: % enzyme activity, 1 μM; Run 1, Run 2
FYN [5] = molecular target: T2, FYN; assay: biochemical; details: read-out: % enzyme activity, 1 μM; Run 1, Run 2
GLK/MAP4K3 = GLK/MAP4K3 (Homo sapiens, UniProt Q8IVH8); assay: biochemical; details: read-out: % enzyme activity, 1 μM; Run 1, Run 2
GRK2 = GRK2 (Homo sapiens, UniProt P25098); assay: biochemical; details: read-out: % enzyme activity, 1 μM; Run 1, Run 2
HCK = HCK (Homo sapiens, UniProt P08631); assay: biochemical; details: read-out: % enzyme activity, 1 μM; Run 1, Run 2
IKKa/CHUK = IKKa/CHUK (Homo sapiens, UniProt O15111); assay: biochemical; details: read-out: % enzyme activity, 1 μM; Run 1, Run 2
LKB1 = LKB1 (Homo sapiens, UniProt Q15831); assay: biochemical; details: read-out: % enzyme activity, 1 μM; Run 1, Run 2
MEK2 = MEK2 (Homo sapiens, UniProt P36507); assay: biochemical; details: read-out: % enzyme activity, 1 μM; Run 1, Run 2
MEKK6 = MEKK6 (Homo sapiens, UniProt O95382); assay: biochemical; details: read-out: % enzyme activity, 1 μM; Run 1, Run 2
MSK1/RPS6KA5 = MSK1/RPS6KA5 (Homo sapiens, UniProt O75582); assay: biochemical; details: read-out: % enzyme activity, 1 μM; Run 1, Run 2
NEK11 = NEK11 (Homo sapiens, UniProt Q8NG66); assay: biochemical; details: read-out: % enzyme activity, 1 μM; Run 1, Run 2
NEK6 = NEK6 (Homo sapiens, UniProt Q9HC98); assay: biochemical; details: read-out: % enzyme activity, 1 μM; Run 1, Run 2
PAK5 = PAK5 (Homo sapiens, UniProt Q9P286); assay: biochemical; details: read-out: % enzyme activity, 1 μM; Run 1, Run 2
PKCa = PKCa (Homo sapiens, UniProt P17252); assay: biochemical; details: read-out: % enzyme activity, 1 μM; Run 1, Run 2
PKCzeta = PKCzeta (Homo sapiens, UniProt Q05513); assay: biochemical; details: read-out: % enzyme activity, 1 μM; Run 1, Run 2
PKG1a = PKG1a (Homo sapiens, UniProt Q13976); assay: biochemical; details: read-out: % enzyme activity, 1 μM; Run 1, Run 2
PKN2/PRK2 = PKN2/PRK2 (Homo sapiens, UniProt Q16513); assay: biochemical; details: read-out: % enzyme activity, 1 μM; Run 1, Run 2
SIK1 [6] = molecular target: T3, SIK1; assay: biochemical; details: read-out: % enzyme activity, 1 μM; Run 1, Run 2
SNRK = SNRK (Homo sapiens, UniProt Q9NRH2); assay: biochemical; details: read-out: % enzyme activity, 1 μM; Run 1, Run 2
TLK2 = TLK2 (Homo sapiens, UniProt Q86UE8); assay: biochemical; details: read-out: % enzyme activity, 1 μM; Run 1, Run 2
YSK4/MAP3K19 = YSK4/MAP3K19 (Homo sapiens, UniProt Q56UN5); assay: biochemical; details: read-out: % enzyme activity, 1 μM; Run 1, Run 2

## COc1cc(-c2cncc(-c3ccc(N4CCN(C(C)C)CC4)cc3)c2C)cc(F)c1C(N)=O [Compound 26b, 2-Fluoro-4-(5-(4-(4-isopropylpiperazin-1-yl)phenyl)-4-methylpyridin-3-yl)-6-methoxybenzamide]
CDK2/cyclin A
  % enzyme activity: 92.29%
CDK2/cyclin E2
  % enzyme activity: 104.46%
CDK2/cyclin O
  % enzyme activity: 92.30%
CDK5/p35 [1]
  % enzyme activity: 95.08%
CDK8/cyclin C
  % enzyme activity: 89.57%
CSK
  % enzyme activity: 92.13%
FRK/PTK5
  % enzyme activity: 99.17%
FYN [2]
  % enzyme activity: 119.07%
MKK4
  % enzyme activity: 94.30%
OSR1/OXSR1
  % enzyme activity: 95.05%
PYK2
  % enzyme activity: 81.78%
SIK1 [3]
  % enzyme activity: 87.47%
SRPK2
  % enzyme activity: 95.75%
STK32B/YANK2
  % enzyme activity: 82.92%
ULK2
  % enzyme activity: 80.11%
WNK2
  % enzyme activity: 98.34%
BTK
  remaining activity at 1 µM: 97.7%
CDK1/cyclin B
  remaining activity at 1 µM: 90.3%
CDK5/p35 [4]
  remaining activity at 1 µM: 95.6%
CK2a2
  remaining activity at 1 µM: 98.1%
DMPK
  remaining activity at 1 µM: 112%
DMPK2
  remaining activity at 1 µM: 87%
DRAK1/STK17A
  remaining activity at 1 µM: 97%
FYN [5]
  remaining activity at 1 µM: 122%
GLK/MAP4K3
  remaining activity at 1 µM: 83.9%
GRK2
  remaining activity at 1 µM: 106%
HCK
  remaining activity at 1 µM: 95.1%
IKKa/CHUK
  remaining activity at 1 µM: 85.6%
LKB1
  remaining activity at 1 µM: 92.5%
MEK2
  remaining activity at 1 µM: 91.3%
MEKK6
  remaining activity at 1 µM: 95.2%
MSK1/RPS6KA5
  remaining activity at 1 µM: 99.7%
NEK11
  remaining activity at 1 µM: 92%
NEK6
  remaining activity at 1 µM: 101%
PAK5
  remaining activity at 1 µM: 96.7%
PKCa
  remaining activity at 1 µM: 88.3%
PKCzeta
  remaining activity at 1 µM: 92.4%
PKG1a
  remaining activity at 1 µM: 104%
PKN2/PRK2
  remaining activity at 1 µM: 103%
SIK1 [6]
  remaining activity at 1 µM: 88.5%
SNRK
  remaining activity at 1 µM: 113%
TLK2
  remaining activity at 1 µM: 95.2%
YSK4/MAP3K19
  remaining activity at 1 µM: 105%
